Measurements as given in PMC6536566.
Results are given in words; binding and its absence hold for the method and conditions named. Binding seen in cells or lysates may run through a third protein. For some assays here: A result given as binding can be weak or reduced; the word gives no strength. For some assays here: Where a sequence is shown, tags or fusion partners need not be part of it.

T1: VN-SAPK10 (rice (Oryza sativa)) (UniProt Q75H77)
T1 sequence: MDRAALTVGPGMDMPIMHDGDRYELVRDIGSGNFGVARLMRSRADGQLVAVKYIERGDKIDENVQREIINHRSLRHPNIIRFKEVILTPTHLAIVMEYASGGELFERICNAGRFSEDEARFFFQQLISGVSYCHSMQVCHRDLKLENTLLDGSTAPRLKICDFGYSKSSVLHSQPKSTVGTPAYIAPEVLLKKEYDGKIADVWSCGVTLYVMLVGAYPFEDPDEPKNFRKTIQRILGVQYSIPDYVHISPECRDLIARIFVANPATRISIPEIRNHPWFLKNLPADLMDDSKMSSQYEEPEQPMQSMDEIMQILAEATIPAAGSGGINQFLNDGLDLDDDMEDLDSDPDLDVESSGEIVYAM


Legend:
[1] = target: T1, VN-SAPK10 (rice (Oryza sativa)); experiment: split reporter; BiFC with Venus halves (VN, VC) co-expressed in rice protoplasts; confocal microscopy; ER-mCherry as internal control, Venus signal/mCherry signal
[2] = target: N-terminal 25 amino acid deletion of OsSLAC1 (Δ25), GFP fusion (rice (Oryza sativa)); experiment: co-IP; GFP fusion and Flag- or HA-tagged protein co-expressed in rice protoplasts; cellular extracts on GFP-trap beads, 4 °C, 2 h; 150 mM NaCl, 50 mM Tris-HCl pH 7.5, 0.5% NP40, 0.5% Triton X-100; immunoblot
[3] = target: Δ35 N-terminal deletion of N-OsSLAC1-GFP (rice (Oryza sativa)); experiment: as above
[4] = target: Δ50 N-terminal deletion of N-OsSLAC1-GFP (rice (Oryza sativa)); experiment: as above
[5] = target: VC-OsSLAC1 (rice (Oryza sativa)); experiment: split reporter; BiFC with Venus halves (VN, VC) co-expressed in rice protoplasts; confocal microscopy; ER-mCherry as internal control, Venus signal/mCherry signal

| binding [1] | binding [2] | binding [3] | binding [4] | binding [5] | Molecule |
| --- | --- | --- | --- | --- | --- |
| no binding |  |  |  |  | OsSar1p-VC |
|  | binds | no binding | no binding |  | OsPP2C53-HA (protein, UniProt Q6L4R7 1-445) MEDLALPAAPPAPTLSFTLLAAAAAVAEAMEEALGAALPPLTAPVPAPGDDSACGSPCSVASDCSSVASADFEGFAELGTSLLAGPAVLFDDLTAASVAVAEAAEPRAVGATARSVFAMDCVPLWGLESICGRRPEMEDDYAVVPRFFDLPLWMVAGDAAVDGLDRASFRLPAHFFAVYDGHGGVQVANYCRKRIHAVLTEELRRAEDDACGSDLSGLESKKLWEKAFVDCFSRVDAEVGGNAASGAPPVAPDTVGSTAVVAVVCSSHVIVANCGDSRAVLCRGKQPLPLSLDHKPNREDEYARIEALGGKVIQWNGYRVLGVLAMSRSIGDKYLKPYIIPVPEVTVVARAKDDDCLILASDGLWDVMSNEEVCDAARKRILLWHKKNAATASTSSAQISGDSSDPAAQAAADYLSKLALQKGSKDNITVVVIDLKAHRKFKSKA |
|  |  |  |  | binds | VN-SAPK10 (protein, UniProt Q75H77 1-362) MDRAALTVGPGMDMPIMHDGDRYELVRDIGSGNFGVARLMRSRADGQLVAVKYIERGDKIDENVQREIINHRSLRHPNIIRFKEVILTPTHLAIVMEYASGGELFERICNAGRFSEDEARFFFQQLISGVSYCHSMQVCHRDLKLENTLLDGSTAPRLKICDFGYSKSSVLHSQPKSTVGTPAYIAPEVLLKKEYDGKIADVWSCGVTLYVMLVGAYPFEDPDEPKNFRKTIQRILGVQYSIPDYVHISPECRDLIARIFVANPATRISIPEIRNHPWFLKNLPADLMDDSKMSSQYEEPEQPMQSMDEIMQILAEATIPAAGSGGINQFLNDGLDLDDDMEDLDSDPDLDVESSGEIVYAM |
|  | binds | no binding | no binding |  | OsPP2C50-HA (protein, UniProt Q6L5H6 1-387) MAAAAAAAAICGEDETAARVGCTGEWAGGIERVDLGERKEAVAAAGAGKRSVYLMDCAPVWGCASTRGRSAEMEDASAAVPRFADVPVRLLASRRDLDALGLDADALRLPAHLFGVFDGHGGAEVANYCRERIHVVLSEELKRLGKNLGEMGEVDMKEHWDDVFTKCFQRVDDEVSGRVTRVVNGGGEVRSEPVTAENVGSTAVVALVCSSHVVVANCGDSRIVLCRGKEPVALSIDHKPDRKDERARIEAQGGKVIQWNGYRVSGILAMSRSIGDRYLKPFVIPKPEVMVVPRAKDDDCLILASDGLWDVVSNEEACKVARRQILLWHKNNGAASPLSDEGEGSTDPAAQAAADYLMRLALKKGSEDNITVIVVDLKPRKKLKNIS |
